Data as given in publication PMC11984871, “Perillaldehyde Improves Parkinson‐Like Deficits by Targeting G3BP Mediated Stress Granule Assembly in Preclinical Models” (Advanced Science, 2025).
No constants are given. Whether binding was seen depends on the method and setting. In cells and extracts the contact can be indirect. Here binding means that the protein was enriched with, or labelled near, the bait; the list need not be complete.

The chains behind the UniProt entries cited, without tags or fusion partners.
UniProt Q13283: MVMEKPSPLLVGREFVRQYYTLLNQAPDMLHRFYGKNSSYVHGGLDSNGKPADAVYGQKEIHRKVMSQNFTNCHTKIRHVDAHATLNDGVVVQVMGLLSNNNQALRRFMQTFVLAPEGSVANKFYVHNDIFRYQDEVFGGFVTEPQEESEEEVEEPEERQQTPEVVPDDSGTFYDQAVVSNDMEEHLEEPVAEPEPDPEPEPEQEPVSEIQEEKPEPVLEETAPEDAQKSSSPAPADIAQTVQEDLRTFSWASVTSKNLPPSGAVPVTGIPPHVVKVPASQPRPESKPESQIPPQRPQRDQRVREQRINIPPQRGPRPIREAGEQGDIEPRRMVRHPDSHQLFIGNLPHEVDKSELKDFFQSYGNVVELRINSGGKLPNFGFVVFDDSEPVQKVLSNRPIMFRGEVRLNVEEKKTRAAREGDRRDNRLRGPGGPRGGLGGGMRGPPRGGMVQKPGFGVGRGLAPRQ
UniProt Q9UBN7: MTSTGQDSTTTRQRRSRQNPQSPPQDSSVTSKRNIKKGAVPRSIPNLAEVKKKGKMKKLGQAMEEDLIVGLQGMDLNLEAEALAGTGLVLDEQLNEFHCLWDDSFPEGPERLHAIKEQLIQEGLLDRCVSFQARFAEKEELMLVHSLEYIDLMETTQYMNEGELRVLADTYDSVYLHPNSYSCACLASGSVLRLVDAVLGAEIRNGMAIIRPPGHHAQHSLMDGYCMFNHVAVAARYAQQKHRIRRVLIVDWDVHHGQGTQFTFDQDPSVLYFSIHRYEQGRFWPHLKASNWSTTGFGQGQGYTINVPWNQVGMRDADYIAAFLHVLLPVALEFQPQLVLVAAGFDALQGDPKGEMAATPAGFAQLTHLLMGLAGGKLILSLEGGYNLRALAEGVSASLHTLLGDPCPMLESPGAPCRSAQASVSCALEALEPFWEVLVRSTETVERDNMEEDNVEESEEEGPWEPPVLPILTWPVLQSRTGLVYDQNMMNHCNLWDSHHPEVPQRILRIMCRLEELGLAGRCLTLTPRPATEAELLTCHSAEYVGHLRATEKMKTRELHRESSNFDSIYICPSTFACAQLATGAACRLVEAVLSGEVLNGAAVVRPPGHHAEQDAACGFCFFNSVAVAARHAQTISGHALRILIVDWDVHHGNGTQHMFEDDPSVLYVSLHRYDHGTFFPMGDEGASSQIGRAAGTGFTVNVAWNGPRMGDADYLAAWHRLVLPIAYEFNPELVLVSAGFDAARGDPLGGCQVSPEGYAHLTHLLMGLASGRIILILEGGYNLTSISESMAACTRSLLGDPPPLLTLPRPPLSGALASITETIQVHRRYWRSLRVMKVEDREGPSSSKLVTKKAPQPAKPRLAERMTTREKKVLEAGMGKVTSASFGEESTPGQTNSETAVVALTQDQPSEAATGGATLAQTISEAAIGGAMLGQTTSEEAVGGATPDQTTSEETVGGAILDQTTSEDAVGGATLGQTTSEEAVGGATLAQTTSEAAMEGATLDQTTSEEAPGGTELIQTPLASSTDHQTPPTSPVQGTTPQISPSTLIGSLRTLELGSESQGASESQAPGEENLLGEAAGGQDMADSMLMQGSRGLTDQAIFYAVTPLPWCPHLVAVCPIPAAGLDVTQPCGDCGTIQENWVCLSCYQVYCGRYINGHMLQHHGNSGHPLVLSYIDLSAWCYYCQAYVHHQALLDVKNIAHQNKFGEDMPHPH

Target: hG3BP1-TurboID-GFP, expressed from pCS2-hG3BP1-TurboID-GFP in SH-SY5Y cells (human) (UniProt Q13283)
Assay: proximity labelling; TurboID: SH-SY5Y cells transfected with pCS2-hG3BP1-TurboID-GFP for 36–48 h, biotin for 15 min, RIPA lysate, streptavidin beads, mass spectrometry; 6-OHDA-treated versus untreated cells

- binding: binds
Substance: HDAC6, endogenous in SH-SY5Y cells (from UniProt Q9UBN7 1-1215) (enzyme)
